# Reference: PubChem BioAssay AID1347076 (National Center for Advancing Translational Sciences (NCATS), 2019)
# The whole screen tested about 400,000 compounds, of which about 13,000 (3.2%) were called active. The shares of active, inactive and inconclusive entries below differ from those in the screen. The call rests on the fitted dose curve; in most records, active means well fitted cell-killing curve with a large enough effect; inconclusive means small, poorly fitted or top-dose-only effect, or effect the other way; inactive means flat fitted curve, though single readings scatter. Where the call is inconclusive, the potency comes from a doubtful curve fit.
# Assay: qHTS assay for MDR1-selective chemotherapeutics: Primary screen using the drug-selected MDR subline cells KB-V1; further: nearly all actives have a fitted effect of over 60% in size
# Conditions: KB-V1 MDR cells viability, CellTiter-Glo, 72 h; activity change, negative = cytotoxicity: at 46.1 µM (top of the series)
# In short: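 In this primary screen, KB-V1 cells overexpressing P-gp are incubated with library compounds (lowest to highest concentration) for 72 h at 37 degrees C before a luminescent ATP viability read.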
# On the % scale 0 is the no-effect control and ±100 the full control effect; potency means the concentration at half of the fitted maximal effect.
SMILES,Potency,"activity change, negative = cytotoxicity"
O=C(CN1CCC(C(=O)c2ccc(F)cc2)CC1)Nc1ccc(F)cc1,"inconclusive: 8.2 µM [cytotoxic, partial curve]",–
CCOCCCN(C(=O)Cn1nnc(-c2ccc(OC)c(OC)c2)n1)C(C(=O)NCC1CCCO1)c1ccc(F)cc1 (configuration not stated),–,inactive: -9.89%
CSc1ccc(CNCCCSc2ncccn2)cc1,"inconclusive: 5.8 µM [cytotoxic, partial curve]",–
CCOc1cc(N2CCOCC2)c(OCC)cc1NC(=O)COc1cccc2cccnc12,active: 5.17 µM,–
CC(=O)c1ccc(Oc2cc(C)nc(-n3nc(C)cc3C)n2)cc1,"inconclusive: 1.64 µM [cytotoxic, full curve]",–
CCn1c(=O)c2sccc2n2c(CCC(=O)Nc3cc(C)cc(C)c3)nnc12,"inconclusive: 9.2 µM [rising, partial curve]",–
N=C(N)SCc1ccccc1Cl,–,inactive: 0%
Cc1ccc(-c2noc(CN(C(=O)C(c3ccccc3)c3ccccc3)C(C)C)n2)cc1,active: 8.2 µM,–
COc1ccc(NC(=O)N(C)C[C@H]2OCc3cnnn3CCCC(=O)N([C@H](C)CO)C[C@@H]2C)cc1,–,inactive: 8.35%
Cc1ccccc1-c1cnc(C(O)c2ccc(F)c(F)c2)[nH]1 (configuration not stated),–,inactive: 11.9%
O=C(N/N=C/c1cccs1)c1cc(-c2ccc3ccccc3c2)n[nH]1,"inconclusive: 16.4 µM [cytotoxic, single point]",–
CCN(CC)CC(=O)Nc1cccc(S(=O)(=O)N2CCCC2)c1,–,inactive: 4.86%
COc1ccc(Cl)cc1NC(=O)CN(C)CC(=O)Nc1ccccc1-c1ccccc1,active: 9.2 µM,–
COc1ccc(Sc2ccc(NC(=O)c3cccc(Cl)c3)cc2C#N)cc1,–,inactive: 2.24%
Cc1ccc(-n2ncc3c2CCCC3NC(=O)c2cnccn2)cc1C (configuration not stated),"inconclusive: 18.4 µM [cytotoxic, single point]",–
CCOC(=O)c1c(C)nc2sc(C(=O)Nc3ccc(OC)cc3)c(N)c2c1-c1ccc(OC)cc1,active: 4.11 µM,–
CC1CCc2sc3ncnc(N4CCOCC4)c3c2C1 (configuration not stated),–,inactive: -21.1%
O=C(CN1CCN(C(=O)CNC(=O)c2ccc(-c3ccccc3)cc2)CC1)Nc1ccccc1Cl,active: 8.2 µM,–
Cc1nc2ccc(Cl)cn2c1[N+](=O)[O-],–,inactive: 12.2%
Cc1ccc(Cl)cc1N1CCN(c2ncnc3onc(C)c23)CC1,"inconclusive: 20.6 µM [cytotoxic, single point]",–
CCCCN1C(=O)CCC(C(=O)O)C1c1ccc([N+](=O)[O-])cc1 (configuration not stated),–,inconclusive: -11.5%
CNC(=O)c1nc(C)c(C2(C)CC(c3ccccc3)=NO2)s1 (configuration not stated),–,inactive: -4.88%
CC(C)[C@H](NC(=O)c1ccccc1Cl)C(=O)OCC(=O)NCc1ccc2c(c1)OCO2,"inconclusive: 29.1 µM [rising, single point]",–
C[C@H](CO)N1C[C@H](C)[C@H](CN(C)C(=O)NC2CCCCC2)Oc2cc(-c3cccnc3)ccc2S1(=O)=O,–,inactive: -10.5%

SMILES,Potency,"activity change, negative = cytotoxicity"
O=C(CSCc1ccccc1)N1CCN(c2ccc(F)cc2)CC1,"inconclusive: 16.4 µM [cytotoxic, partial curve]",–
CCOC(=O)C1=C(COC(=O)c2nc(Cl)ccc2Cl)NC(=O)NC1C (configuration not stated),–,inconclusive: 27.5%
CC(C)(C)N=C1NN=C(c2ccc(S(=O)(=O)N3CCCCC3)cc2)CS1,"inconclusive: 32.6 µM [cytotoxic, single point]",–
CCCC(=O)Nc1nc2ccc(NC(=O)c3ccccc3F)cc2s1,active: 1.84 µM,–
CSCCC(NC(=O)COc1ccccc1)C(=O)NCC1COc2ccccc2O1 (configuration not stated),"inconclusive: 8.2 µM [cytotoxic, partial curve, poor fit]",–
CC1CC(C)CN(C(=O)C2CCCN(S(=O)(=O)c3cccc4nonc34)C2)C1 (configuration not stated),"inconclusive: 2.59 µM [cytotoxic, full curve]",–
CCc1cc2c(SCC(=O)c3ccc(Cl)s3)ncnc2s1,"inconclusive: 20.6 µM [cytotoxic, partial curve]",–
C[C@H]1C=CC(=O)O[C@H]1c1ccccc1,"inconclusive: 29.1 µM [cytotoxic, single point]",–
Cc1ccc(C(=O)N2CCN(c3nc4ccccc4n3C)CC2)cc1,"inconclusive: 5.8 µM [cytotoxic, partial curve, poor fit]",–
O=S(=O)(c1ccc(OCc2ccc(Br)cc2)cc1)N1CCOCC1,"inconclusive: 25.9 µM [rising, partial curve, poor fit]",–
COCCNC(=O)CN(CCc1ccccc1)S(=O)(=O)c1ccc(OC)cc1,active: 18.4 µM,–
CC(C)(Oc1ccc(Cl)cc1)C(=O)N(Cc1ccccc1)c1ccccn1,active: 14.6 µM,–
Cc1cc(C)n2nc(C)c(-c3ccc(Cl)cc3)c2n1,–,inactive: 1.78%
COc1cc2oc(=O)cc(CN3CCN(c4ccccc4F)CC3)c2cc1Cl,–,inactive: 7.75%
CCCn1c(SCC(=O)c2cc(C)n(-c3cc(C)on3)c2C)n[nH]c1=O,"inconclusive: 20.6 µM [cytotoxic, single point]",–
COc1ccc(N2CCN(S(=O)(=O)CCNC(=O)Cc3ccc([N+](=O)[O-])cc3)CC2)cc1,–,inconclusive: -11.6%
CCc1ccc(OCC(O)CN2CCN(c3ccccn3)CC2)cc1 (configuration not stated),"inconclusive: 0.651 µM [cytotoxic, full curve, poor fit]",–
Cn1c(=O)[nH]c(=O)c2c1nc(N(CCO)Cc1ccccc1)n2CCCc1ccccc1,"inconclusive: 5.17 µM [cytotoxic, full curve]",–
O=C(Nc1ccc(-c2cscn2)cc1)C1CCCN(Cc2ccccc2)C1 (configuration not stated),–,inactive: -19.7%
O=C(NNC(=O)c1nn(-c2ccc(F)cc2)ccc1=O)c1ccc(Cl)cc1,"inconclusive: 25.9 µM [cytotoxic, partial curve, poor fit]",–
COc1ccc(S(=O)(=O)Nc2c(C)ccc3nsnc23)cc1OC,"inconclusive: 23.1 µM [cytotoxic, single point]",–
Cc1cc(C)c2c(CC(=O)N(Cc3ccccc3)C3CCS(=O)(=O)C3)coc2c1 (configuration not stated),"inconclusive: 20.6 µM [cytotoxic, single point]",–
O=C(NCc1ccco1)C(c1ccncc1)N(C(=O)Cn1nnc2ccccc21)c1ccccc1F (configuration not stated),–,inactive: -1.91%
CC1=CC(C)(C)N(C(=O)CSc2nccn2C)c2cc(C)ccc21,"inconclusive: 18.4 µM [cytotoxic, partial curve]",–

# Three compounds out of the list, sorted by molecular weight, smallest number first:
SMILES,Potency,"activity change, negative = cytotoxicity"
CCCn1c(SCC(=O)c2cc(C)n(-c3cc(C)on3)c2C)n[nH]c1=O,"inconclusive: 20.6 µM [cytotoxic, single point]",–
O=C(Nc1ccc(-c2cscn2)cc1)C1CCCN(Cc2ccccc2)C1 (configuration not stated),–,inactive: -19.7%
O=S(=O)(c1ccc(OCc2ccc(Br)cc2)cc1)N1CCOCC1,"inconclusive: 25.9 µM [rising, partial curve, poor fit]",–

# (cont.)

SMILES,Potency,"activity change, negative = cytotoxicity"
Cc1ccsc1/C=N/NC(=O)Cc1cccn1C,–,inactive: 4.19%
CCSC1=C(C#N)C(c2ccccc2Cl)C(C(=O)c2cccs2)C(O)(C(F)(F)F)N1 (configuration not stated),"inconclusive: 29.1 µM [cytotoxic, single point]",–
COc1ccc(-c2c(C)oc3cc(O)cc(O)c3c2=O)cc1OC,"inconclusive: 0.731 µM [rising, full curve, poor fit]",–
Cc1ccc2nc3c(cc(C(=O)NC4CCCC4)c(=N)n3C3CCCCC3)c(=O)n2c1,"inconclusive: 14.6 µM [cytotoxic, partial curve, poor fit]",–
CC[C@@H](CC1CCCCC1)C(=O)N(Cc1ccccc1)c1ccccc1,"inconclusive: 16.4 µM [cytotoxic, single point]",–
O=C(Nc1ccc(S(=O)(=O)Nc2cnc3ccccc3n2)cc1)c1ccc(Cl)cc1Cl,–,inactive: 1.52%
O=C(COc1ccccc1Br)NCc1ccco1,"inconclusive: 20.6 µM [cytotoxic, single point]",–
COc1ccc(C(CCNC(C)c2ccccc2)c2ccc(F)cc2)cc1 (configuration not stated),active: 11.6 µM,–
Cc1cc(N2CCOCC2)nc(-c2ccccc2O)n1,"inconclusive: 13 µM [cytotoxic, partial curve]",–
CC(C)(C)NC(=O)NC(=O)CN1CCN(S(=O)(=O)c2ccc3c(c2)OCCO3)CC1,"inconclusive: 10.3 µM [cytotoxic, partial curve]",–
O=C(Cc1ccc(F)cc1)NCCS(=O)(=O)N1CCN(c2cccc(Cl)c2)CC1,"inconclusive: 14.6 µM [cytotoxic, partial curve]",–
O=c1c2ccccc2c(-c2cccc(C(F)(F)F)c2)nn1-c1ccccc1,–,inactive: 4.36%
COc1cc(OC)c(C2=NOC(C(=O)Nc3cc(C)nn3-c3ccccc3)C2)cc1Cl (configuration not stated),active: 18.4 µM,–
Cc1ccccc1C(=O)N(Cc1nc2ccccc2c(=O)[nH]1)C1CCCC1,"inconclusive: 2.91 µM [cytotoxic, full curve]",–
Cc1cccc(NS(=O)(=O)c2ccc(C(=O)NCC(C)(C)N3CCOCC3)cc2)c1C,"inconclusive: 18.4 µM [cytotoxic, single point]",–
COc1ccccc1CNC(=O)c1ccc(-c2nc(CN3CCc4ccccc43)c(C)o2)cc1,active: 10.3 µM,–
COc1ccc(C(=O)NCCn2cc(SCC(=O)Nc3cc(C)on3)c3ccccc32)cc1OC,–,inactive: 9.12%
Cc1onc(-c2c(Cl)cccc2Cl)c1C(=O)NCCc1ccc(S(N)(=O)=O)cc1,"inconclusive: 25.9 µM [cytotoxic, partial curve, poor fit]",–
O=c1[nH]c(N/N=C\c2ccc(F)cc2)nc2ccccc12,–,inactive: -23.6%
COc1cccc(CNc2cccc(C(F)(F)F)c2)c1O,–,inactive: -17.9%
Nc1c(C(=O)NCCN2CCOCC2)c2nc3ccccc3nc2n1-c1cccc(F)c1,–,inactive: -25.8%
CC12CC3CC(C)(C1)CC(C(=O)N1CCN(C(=O)c4ccco4)CC1)(C3)C2,"inconclusive: 32.6 µM [cytotoxic, partial curve, poor fit]",–
C/C(=N\NC(=O)CSc1nc2ccccc2c(=O)n1-c1ccccc1C)c1cccs1,active: 2.31 µM,–
CCOc1cc(N2CCOCC2)c(OCC)cc1NC(=O)Cn1cnc2c(=O)n(C)c(=O)n(C)c21,"inconclusive: 2.91 µM [rising, full curve]",–
